# No constants are given. Whether binding was seen depends on the method and setting. Some binding calls cover weakened binding; strength is not graded here. For some assays here: Where a sequence is shown, tags or fusion partners need not be part of it.
# Protein sequences, listed by entry. Tags and fused reporters are not part of them. Residues count along the entry.
# UniProt P00747, residues 20-810: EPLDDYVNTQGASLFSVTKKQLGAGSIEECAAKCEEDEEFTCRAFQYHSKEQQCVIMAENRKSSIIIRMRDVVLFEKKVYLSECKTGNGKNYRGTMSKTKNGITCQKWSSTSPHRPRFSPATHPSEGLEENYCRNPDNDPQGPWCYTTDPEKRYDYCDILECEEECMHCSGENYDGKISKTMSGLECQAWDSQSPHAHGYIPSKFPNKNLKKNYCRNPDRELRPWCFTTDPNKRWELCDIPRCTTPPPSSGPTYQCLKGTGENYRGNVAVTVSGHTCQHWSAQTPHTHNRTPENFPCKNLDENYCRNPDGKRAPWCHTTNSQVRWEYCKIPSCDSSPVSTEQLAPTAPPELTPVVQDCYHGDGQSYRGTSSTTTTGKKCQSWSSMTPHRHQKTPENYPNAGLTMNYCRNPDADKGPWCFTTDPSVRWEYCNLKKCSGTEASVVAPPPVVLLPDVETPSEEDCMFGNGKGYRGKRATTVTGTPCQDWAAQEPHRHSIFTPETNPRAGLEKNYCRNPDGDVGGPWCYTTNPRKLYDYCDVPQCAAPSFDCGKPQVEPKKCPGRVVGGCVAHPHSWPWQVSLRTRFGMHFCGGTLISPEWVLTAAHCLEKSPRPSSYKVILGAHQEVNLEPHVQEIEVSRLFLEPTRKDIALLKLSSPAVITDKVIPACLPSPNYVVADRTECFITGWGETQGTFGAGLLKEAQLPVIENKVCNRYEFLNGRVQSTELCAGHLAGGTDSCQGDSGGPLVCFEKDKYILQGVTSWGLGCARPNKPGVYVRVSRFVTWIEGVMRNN
# B1: Phtlec phage (Phtlec-gene III fusion protein displayed on recombinant phage) (other)
# chain: PAMAEPPTQKPKKIVNAKKDVVNTKMFEELKSRLDTLAQEVALLKEQQALQTVVLKGTKVHMKVFLAFTQTKTFHEASEDCISRGGTLSTPQTGSENDALYEYLRQSVGNEAEIWLGLNDMAAEGTWVDMTGTRIAYKNWETEITAQPDGGKTENCAVLSGAANGKWFDKRCRDQLPYICQFGIVA
# notes: Tested as whole phage particles rescued with M13KO7; claim 15 says htlec itself is position 5 Glu to 185 Val of it; also called human Phtlec phages; Phlec; not shown: phage gene III protein fused after the Phtlec part, as encoded by phagemid pCANTAB 5E; limits and any tag in between not
# B2: PhtCTLD phage (PhtCTLD-gene III fusion protein displayed on recombinant phage) (protein, not shown: large carriers)
# chain: PAMAALQTVVLKGTKVHMKVFLAFTQTKTFHEASEDCISRGGTLSTPQTGSENDALYEYLRQSVGNEAEIWLGLNDMAAEGTWVDMTGTRIAYKNWETEITAQPDGGKTENCAVLSGAANGKWFDKRCRDQLPYICQFGIVA
# What was measured:
# [1] = target: human plasminogen (human) (UniProt P00747); assay: phage ELISA on coated human plasminogen
# [2] = target: human plasminogen (human) (UniProt P00747); assay: phage ELISA on coated plasminogen, populations from selection round 2, HRP anti-gene VIII detection
binder,measurement,setting,value
B1,binding,[1],binds
B2,binding,[2],binds

# — patent publication US20040132094A1 (ANAPHORE, published 2004)
